Test results reported in US20250171821A1, “HIF-1 ACTIVATORS AND USES THEREOF” (Ramot at Tel-Aviv University Ltd., priority 2022, published 2025).
Results are given in words; binding and its absence hold for the method and conditions named. Some binding calls cover weakened binding; strength is not graded here.

Sequences of proteins named here, by UniProt entry; tags and fusion partners are left off. A change or cut given only in a name is not applied to a line headed by its entry.
UniProt Q9GZT9: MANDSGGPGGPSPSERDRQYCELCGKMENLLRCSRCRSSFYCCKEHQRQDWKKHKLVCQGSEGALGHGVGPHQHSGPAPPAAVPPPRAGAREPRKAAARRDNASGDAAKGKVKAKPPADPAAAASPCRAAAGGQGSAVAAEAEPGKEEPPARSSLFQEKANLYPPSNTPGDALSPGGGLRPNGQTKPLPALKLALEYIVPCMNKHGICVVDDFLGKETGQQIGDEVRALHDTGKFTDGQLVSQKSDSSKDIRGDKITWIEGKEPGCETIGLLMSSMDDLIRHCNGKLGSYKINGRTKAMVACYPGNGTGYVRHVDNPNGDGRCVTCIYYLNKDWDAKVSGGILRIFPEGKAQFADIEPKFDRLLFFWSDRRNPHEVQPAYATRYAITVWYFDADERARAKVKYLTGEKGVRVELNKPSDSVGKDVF

How the values were obtained:
[1] = molecular target: T1, PHD2/EGLN1 (HIF-prolyl hydroxylase 2) (human, UniProt Q9GZT9 181-426); experiment: fluorescence polarization
T1 construct: The protein was expressed as a cleavable GST fusion and the eluate of the GST column was used; also called PHD enzyme; PHD protein

[2] = molecular target: T1, PHD2/EGLN1 (HIF-prolyl hydroxylase 2); experiment: fluorescence polarization; PHD protein titrated into 200 nM FITC-labeled peptide; normalized bound fraction

- binding [1]: binds
- binding [2]: binds
Binder: DLDLEALAPYIPADDDFQLR (FITC label (position not given)) [HIF peptide (FITC-labeled)]
